Laboratory results published in the supplement of paper PMC10849652.
Some of the results follow.

Sequences of proteins named here, by UniProt entry; tags and fusion partners are left off. A change or cut given only in a name is not applied to a line headed by its entry.
UniProt O15061: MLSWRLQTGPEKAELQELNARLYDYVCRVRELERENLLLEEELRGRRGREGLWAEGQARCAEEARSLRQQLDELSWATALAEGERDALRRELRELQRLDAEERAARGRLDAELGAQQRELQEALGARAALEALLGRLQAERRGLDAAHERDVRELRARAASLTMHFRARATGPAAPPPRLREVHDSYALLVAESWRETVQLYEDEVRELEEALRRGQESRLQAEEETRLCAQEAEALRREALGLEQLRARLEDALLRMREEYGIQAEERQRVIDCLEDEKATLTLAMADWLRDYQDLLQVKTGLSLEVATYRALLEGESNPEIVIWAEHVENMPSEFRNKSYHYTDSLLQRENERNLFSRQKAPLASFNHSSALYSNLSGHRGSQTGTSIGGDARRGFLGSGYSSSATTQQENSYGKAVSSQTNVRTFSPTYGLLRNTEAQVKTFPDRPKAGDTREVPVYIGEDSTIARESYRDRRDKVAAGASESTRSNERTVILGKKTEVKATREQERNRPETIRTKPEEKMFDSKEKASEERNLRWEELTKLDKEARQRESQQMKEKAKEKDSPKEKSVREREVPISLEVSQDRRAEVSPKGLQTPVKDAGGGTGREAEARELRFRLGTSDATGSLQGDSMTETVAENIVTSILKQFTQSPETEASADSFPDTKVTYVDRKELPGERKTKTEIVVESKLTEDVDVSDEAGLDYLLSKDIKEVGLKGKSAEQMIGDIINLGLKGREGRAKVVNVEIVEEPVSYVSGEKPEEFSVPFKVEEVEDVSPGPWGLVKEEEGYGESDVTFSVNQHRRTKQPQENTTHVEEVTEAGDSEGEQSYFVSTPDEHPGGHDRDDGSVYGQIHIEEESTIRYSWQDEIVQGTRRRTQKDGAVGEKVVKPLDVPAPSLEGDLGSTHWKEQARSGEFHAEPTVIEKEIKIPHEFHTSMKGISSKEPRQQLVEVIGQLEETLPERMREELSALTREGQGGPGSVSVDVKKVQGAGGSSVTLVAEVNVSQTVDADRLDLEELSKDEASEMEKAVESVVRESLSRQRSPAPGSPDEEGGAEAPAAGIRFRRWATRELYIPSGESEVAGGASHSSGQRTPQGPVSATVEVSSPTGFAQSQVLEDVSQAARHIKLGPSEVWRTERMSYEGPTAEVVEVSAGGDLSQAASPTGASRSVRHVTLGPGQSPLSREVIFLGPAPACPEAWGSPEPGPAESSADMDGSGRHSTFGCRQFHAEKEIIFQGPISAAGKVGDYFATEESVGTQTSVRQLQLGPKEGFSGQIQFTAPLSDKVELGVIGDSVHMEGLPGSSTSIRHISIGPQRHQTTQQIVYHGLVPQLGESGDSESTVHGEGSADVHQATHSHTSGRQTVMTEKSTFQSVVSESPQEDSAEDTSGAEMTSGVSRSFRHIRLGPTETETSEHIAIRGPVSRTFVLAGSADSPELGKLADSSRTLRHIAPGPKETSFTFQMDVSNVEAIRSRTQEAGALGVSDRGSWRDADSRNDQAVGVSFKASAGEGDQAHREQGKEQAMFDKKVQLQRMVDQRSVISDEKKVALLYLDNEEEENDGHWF
UniProt P0DMM9: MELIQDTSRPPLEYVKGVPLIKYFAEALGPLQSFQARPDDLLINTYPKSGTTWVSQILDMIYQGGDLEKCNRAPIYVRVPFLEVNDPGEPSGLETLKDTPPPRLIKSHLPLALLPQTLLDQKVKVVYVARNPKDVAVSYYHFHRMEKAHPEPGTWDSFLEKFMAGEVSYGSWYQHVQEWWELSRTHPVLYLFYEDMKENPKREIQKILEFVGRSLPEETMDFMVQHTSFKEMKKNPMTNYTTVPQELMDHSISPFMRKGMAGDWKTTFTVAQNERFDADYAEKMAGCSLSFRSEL
UniProt Q8NFX7: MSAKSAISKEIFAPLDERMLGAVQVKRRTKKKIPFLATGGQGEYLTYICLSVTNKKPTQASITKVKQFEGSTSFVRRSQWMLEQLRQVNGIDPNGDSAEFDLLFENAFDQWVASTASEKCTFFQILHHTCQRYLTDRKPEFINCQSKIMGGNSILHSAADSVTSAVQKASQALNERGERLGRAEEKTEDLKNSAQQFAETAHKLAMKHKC
UniProt Q9H668: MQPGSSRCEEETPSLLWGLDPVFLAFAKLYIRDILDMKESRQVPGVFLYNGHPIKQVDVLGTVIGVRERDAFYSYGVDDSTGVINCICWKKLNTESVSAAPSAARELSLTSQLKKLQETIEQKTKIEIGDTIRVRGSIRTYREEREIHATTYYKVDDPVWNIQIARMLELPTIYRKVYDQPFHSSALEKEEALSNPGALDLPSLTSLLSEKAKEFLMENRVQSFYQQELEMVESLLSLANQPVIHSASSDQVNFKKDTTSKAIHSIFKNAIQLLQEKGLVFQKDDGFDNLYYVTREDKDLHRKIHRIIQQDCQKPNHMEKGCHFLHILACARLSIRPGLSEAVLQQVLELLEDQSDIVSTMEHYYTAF
UniProt O43759: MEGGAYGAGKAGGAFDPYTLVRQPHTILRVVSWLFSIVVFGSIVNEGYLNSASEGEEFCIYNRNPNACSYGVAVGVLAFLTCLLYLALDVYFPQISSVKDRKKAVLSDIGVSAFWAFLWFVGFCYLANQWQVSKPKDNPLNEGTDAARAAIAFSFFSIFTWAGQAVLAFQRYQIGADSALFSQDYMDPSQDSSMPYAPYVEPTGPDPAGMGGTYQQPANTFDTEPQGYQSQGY
UniProt O60506: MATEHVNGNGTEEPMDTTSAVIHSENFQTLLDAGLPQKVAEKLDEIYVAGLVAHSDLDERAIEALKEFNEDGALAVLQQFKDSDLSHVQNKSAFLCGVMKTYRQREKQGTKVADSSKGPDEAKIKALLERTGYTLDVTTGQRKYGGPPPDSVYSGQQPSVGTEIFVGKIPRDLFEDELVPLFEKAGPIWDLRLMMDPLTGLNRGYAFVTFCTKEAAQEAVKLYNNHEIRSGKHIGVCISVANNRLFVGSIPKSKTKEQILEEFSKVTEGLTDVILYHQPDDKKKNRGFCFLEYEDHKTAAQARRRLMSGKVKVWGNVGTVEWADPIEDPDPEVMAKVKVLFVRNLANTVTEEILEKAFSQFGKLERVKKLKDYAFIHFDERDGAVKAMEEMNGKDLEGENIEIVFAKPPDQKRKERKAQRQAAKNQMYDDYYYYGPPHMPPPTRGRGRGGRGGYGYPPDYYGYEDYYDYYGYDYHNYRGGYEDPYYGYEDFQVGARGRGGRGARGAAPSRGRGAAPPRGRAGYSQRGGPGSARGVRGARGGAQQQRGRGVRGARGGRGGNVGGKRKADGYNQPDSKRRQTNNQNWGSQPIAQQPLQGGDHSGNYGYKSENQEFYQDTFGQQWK
UniProt Q8WUJ0: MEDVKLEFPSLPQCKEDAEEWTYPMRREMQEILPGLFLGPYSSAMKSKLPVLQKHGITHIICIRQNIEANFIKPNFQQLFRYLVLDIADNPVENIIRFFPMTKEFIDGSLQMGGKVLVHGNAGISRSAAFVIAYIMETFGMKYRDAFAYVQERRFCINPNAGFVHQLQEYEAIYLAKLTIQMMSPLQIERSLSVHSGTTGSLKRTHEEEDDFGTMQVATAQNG
UniProt O94804: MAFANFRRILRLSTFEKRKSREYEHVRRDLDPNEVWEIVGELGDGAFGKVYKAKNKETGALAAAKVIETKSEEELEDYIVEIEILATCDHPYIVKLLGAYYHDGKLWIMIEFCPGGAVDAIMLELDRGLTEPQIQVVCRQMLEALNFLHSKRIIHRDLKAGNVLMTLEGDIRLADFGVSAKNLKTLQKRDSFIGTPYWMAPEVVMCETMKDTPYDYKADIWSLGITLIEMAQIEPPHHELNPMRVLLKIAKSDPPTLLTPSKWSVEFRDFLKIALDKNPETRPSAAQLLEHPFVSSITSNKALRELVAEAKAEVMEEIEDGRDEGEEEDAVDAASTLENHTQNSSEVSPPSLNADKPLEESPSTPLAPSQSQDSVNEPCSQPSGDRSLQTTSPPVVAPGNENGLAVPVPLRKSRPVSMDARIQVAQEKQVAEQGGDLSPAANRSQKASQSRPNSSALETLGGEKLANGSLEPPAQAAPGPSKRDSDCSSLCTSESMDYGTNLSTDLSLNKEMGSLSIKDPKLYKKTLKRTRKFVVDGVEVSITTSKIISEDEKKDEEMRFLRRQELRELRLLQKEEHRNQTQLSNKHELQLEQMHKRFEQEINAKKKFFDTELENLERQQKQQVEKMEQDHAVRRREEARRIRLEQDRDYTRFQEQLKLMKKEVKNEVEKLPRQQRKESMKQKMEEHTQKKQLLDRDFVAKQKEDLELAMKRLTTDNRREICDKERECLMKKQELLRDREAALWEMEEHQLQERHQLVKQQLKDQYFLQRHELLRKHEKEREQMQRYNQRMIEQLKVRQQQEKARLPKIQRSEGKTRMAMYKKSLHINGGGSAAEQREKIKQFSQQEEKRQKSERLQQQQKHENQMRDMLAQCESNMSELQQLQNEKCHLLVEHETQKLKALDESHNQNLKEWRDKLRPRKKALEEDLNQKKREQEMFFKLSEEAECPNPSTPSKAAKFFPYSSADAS
UniProt Q15544, whole entry, looked up: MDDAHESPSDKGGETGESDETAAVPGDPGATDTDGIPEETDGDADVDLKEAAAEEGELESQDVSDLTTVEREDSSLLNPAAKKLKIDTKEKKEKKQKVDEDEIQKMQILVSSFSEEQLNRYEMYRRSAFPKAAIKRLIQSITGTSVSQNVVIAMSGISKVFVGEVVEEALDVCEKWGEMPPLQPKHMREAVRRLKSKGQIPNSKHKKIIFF
UniProt P21675, whole entry, looked up: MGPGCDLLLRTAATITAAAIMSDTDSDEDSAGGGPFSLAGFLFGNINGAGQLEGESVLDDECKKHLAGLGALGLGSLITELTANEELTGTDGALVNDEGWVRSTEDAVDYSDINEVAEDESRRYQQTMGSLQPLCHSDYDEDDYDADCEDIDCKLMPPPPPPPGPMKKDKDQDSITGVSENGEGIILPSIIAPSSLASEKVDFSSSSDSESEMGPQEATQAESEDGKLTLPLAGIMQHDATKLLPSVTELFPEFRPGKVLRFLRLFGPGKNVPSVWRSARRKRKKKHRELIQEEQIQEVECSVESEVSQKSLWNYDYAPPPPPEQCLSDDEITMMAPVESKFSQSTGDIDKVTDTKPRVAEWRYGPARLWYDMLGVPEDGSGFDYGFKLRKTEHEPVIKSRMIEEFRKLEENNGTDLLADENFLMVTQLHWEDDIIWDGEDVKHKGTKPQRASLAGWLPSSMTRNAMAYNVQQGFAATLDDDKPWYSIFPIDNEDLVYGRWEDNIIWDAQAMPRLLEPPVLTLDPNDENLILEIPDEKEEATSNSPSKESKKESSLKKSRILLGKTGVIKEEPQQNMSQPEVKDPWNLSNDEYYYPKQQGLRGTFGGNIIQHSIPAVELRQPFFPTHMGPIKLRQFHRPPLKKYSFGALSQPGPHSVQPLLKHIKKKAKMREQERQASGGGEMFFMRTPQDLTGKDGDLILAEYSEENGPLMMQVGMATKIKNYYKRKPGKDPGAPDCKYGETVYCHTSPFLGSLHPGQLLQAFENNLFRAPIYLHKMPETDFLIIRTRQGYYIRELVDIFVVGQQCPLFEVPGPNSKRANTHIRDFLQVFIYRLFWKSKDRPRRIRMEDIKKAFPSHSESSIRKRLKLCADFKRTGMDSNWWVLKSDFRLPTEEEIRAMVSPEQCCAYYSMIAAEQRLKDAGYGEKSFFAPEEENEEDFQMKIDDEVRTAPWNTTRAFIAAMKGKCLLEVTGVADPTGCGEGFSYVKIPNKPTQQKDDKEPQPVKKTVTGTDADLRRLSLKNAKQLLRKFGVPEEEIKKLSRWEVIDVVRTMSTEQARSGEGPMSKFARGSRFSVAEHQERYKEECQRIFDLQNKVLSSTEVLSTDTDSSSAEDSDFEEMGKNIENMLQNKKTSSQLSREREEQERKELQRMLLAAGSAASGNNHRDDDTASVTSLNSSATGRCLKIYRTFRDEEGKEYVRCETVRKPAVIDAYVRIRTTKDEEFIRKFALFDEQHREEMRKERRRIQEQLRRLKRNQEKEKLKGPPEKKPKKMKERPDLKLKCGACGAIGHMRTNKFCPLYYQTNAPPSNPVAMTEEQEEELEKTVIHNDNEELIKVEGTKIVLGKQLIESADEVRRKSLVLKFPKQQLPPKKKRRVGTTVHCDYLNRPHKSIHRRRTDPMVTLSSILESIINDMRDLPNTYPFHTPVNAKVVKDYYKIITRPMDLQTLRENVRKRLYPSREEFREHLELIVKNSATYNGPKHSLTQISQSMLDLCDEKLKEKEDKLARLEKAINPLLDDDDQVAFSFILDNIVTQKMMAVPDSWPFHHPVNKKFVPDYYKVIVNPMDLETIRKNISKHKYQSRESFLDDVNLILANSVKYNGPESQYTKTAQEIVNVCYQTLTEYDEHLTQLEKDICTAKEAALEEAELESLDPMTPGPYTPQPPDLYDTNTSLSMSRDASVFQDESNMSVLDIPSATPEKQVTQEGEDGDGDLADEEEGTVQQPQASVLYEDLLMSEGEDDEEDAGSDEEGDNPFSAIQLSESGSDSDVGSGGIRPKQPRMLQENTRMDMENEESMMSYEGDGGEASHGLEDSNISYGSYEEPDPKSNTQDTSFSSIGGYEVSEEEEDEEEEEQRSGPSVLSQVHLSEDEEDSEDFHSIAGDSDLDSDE

compound: C1=CC=C(C=C1)[C@H](COC2=CC3=C(C=C2)NC(=O)N3)NC(=O)C4=CC=CN(C4=O)CC5=CC(=C(C=C5)F)F; test: log2 fold change, soluble protein after heating vs DMSO (PISA); higher = thermal stabilisation; K562 lysate, 10 uM; active = over 0.2 and 3.5 SD of the protein, either way, in both replicates (recomputed)
Procedure, shortened: (§1)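 K562 pellets were dounce-homogenised in PBS pH 7.4 containing 1 mM MgCl2, and the crude extract, at 1 mg/mL protein, was exposed to 10 μM compound for 30 min. Aliquots were heated for 3 min across 48°C-58°C, pooled, brought to 0.5% NP-40 at 4°C and spun at 21,000xg for 90 min, with the supernatant taken as soluble protein. TMTpro 16plex LC-MS/MS with equalised channel sums quantified that protein. Values are log-two fold changes in thermal stability relative to solvent controls, taken from duplicates.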

Target | log2 fold change
STK35 (UniProt Q8TDR2) | inactive: 0.045
SZT2 (UniProt Q5T011) | inactive: -0.285
SYNM (UniProt O15061) | inactive: 0.078
SUPT4H1 (UniProt P63272) | inactive: -0.008
SULT1A3 isoform 3 (UniProt P0DMM9) | inactive: -0.08
SYTL2 isoform 8 (UniProt Q9HCH5) | inactive: 0.112
STXBP6 (UniProt Q8NFX7) | inactive: 0.103
STN1 (UniProt Q9H668) | inactive: -0.125
SYNGR1 isoform 2 (UniProt O43759) | inactive: 0.083
TAB3 (UniProt Q8N5C8) | inactive: 0.247
SYNCRIP isoform 3 (UniProt O60506) | inactive: 0.024
STS (UniProt P08842) | inactive: 0.353
STYX (UniProt Q8WUJ0) | inactive: -0.03
STK10 (UniProt O94804) | inactive: 0.022
STRN3 isoform 2 (UniProt Q13033) | inactive: 0.124

compound: CC1=C(SC2=C1C(=N[C@H](C3=NN=C(N32)C)CC(=O)N)C4=CC=C(C=C4)Cl)C; test: as above
Procedure, shortened: as §1

Target | log2 fold change
STK35 (UniProt Q8TDR2) | inactive: 0.044
SZT2 (UniProt Q5T011) | inactive: -0.066
SYNM (UniProt O15061) | inactive: -0.019
SUPT4H1 (UniProt P63272) | inactive: 0.035
SULT1A3 isoform 3 (UniProt P0DMM9) | inactive: -0.083
SYTL2 isoform 8 (UniProt Q9HCH5) | inactive: 0.019
STXBP6 (UniProt Q8NFX7) | inactive: -0.095
STN1 (UniProt Q9H668) | inactive: 0.073
SYNGR1 isoform 2 (UniProt O43759) | inactive: 0.034
TAB3 (UniProt Q8N5C8) | inactive: -0.194
SYNCRIP isoform 3 (UniProt O60506) | inactive: 0.011
STS (UniProt P08842) | inactive: -0.324
STYX (UniProt Q8WUJ0) | inactive: 0.06
STK10 (UniProt O94804) | inactive: 0
STRN3 isoform 2 (UniProt Q13033) | inactive: -0.106

compound: CC1=C2C(=CC=C1)N=C(N(C2=O)C3=CC=CC=C3C)CN4C=NC5=C(N=CN=C54)N; test: as above
Procedure, shortened: as §1

Target | log2 fold change
TAF1A (UniProt Q15573) | inactive: -0.015
SUFU (UniProt Q9UMX1) | inactive: 0.049
TAF11 (UniProt Q15544) | inactive: 0
SUPT4H1 (UniProt P63272) | inactive: 0.029
STK16 (UniProt O75716) | inactive: -0.491
TAF13 (UniProt Q15543) | inactive: 0.177
STN1 (UniProt Q9H668) | inactive: -0.115
SYNCRIP isoform 3 (UniProt O60506) | inactive: 0.048
SUCO isoform 2 (UniProt Q9UBS9) | inactive: 0.015
STS (UniProt P08842) | inactive: 0.078
TAF1 isoform 4 (UniProt P21675) | inactive: 0.113
TADA2B (UniProt Q86TJ2) | inactive: 0.075
TACC3 (UniProt C9JWI7) | inactive: 0.048

compound: Cc1sc2c(c1C)C(c1ccc(Cl)cc1)=N[C@@H](CC(=O)OC(C)(C)C)c1nnc(C)n1-2; test: as above
Procedure, shortened: as §1

Target | log2 fold change
STK35 (UniProt Q8TDR2) | inactive: -0.081
SZT2 (UniProt Q5T011) | inactive: -0.148
TAF11 (UniProt Q15544) | inactive: -0.16
SUPT4H1 (UniProt P63272) | inactive: 0.023
STK16 (UniProt O75716) | inactive: -0.12
SULT1A3 isoform 3 (UniProt P0DMM9) | inactive: 0.045
SYTL2 isoform 8 (UniProt Q9HCH5) | inactive: -0.13
STK38L (UniProt Q9Y2H1) | inactive: -0.031
STIM2 isoform 2 (UniProt Q9P246) | inactive: -0.039
STK17B (UniProt O94768) | inactive: -0.029
STK19 (UniProt P49842) | inactive: -0.338
TAB3 (UniProt Q8N5C8) | inactive: 0.049
SWSAP1 (UniProt Q6NVH7) | inactive: -0.12
TAF1 isoform 4 (UniProt P21675) | inactive: 0.057
STRN3 (UniProt H0YJT2) | inactive: -0.018
SUSD1 isoform 2 (UniProt Q6UWL2) | inactive: -0.083
STK26 isoform 3 (UniProt Q9P289) | inactive: 0.166
TADA2B (UniProt Q86TJ2) | inactive: -0.017
STYX (UniProt Q8WUJ0) | inactive: -0.011
STK10 (UniProt O94804) | inactive: -0.126
STRN3 isoform 2 (UniProt Q13033) | inactive: -0.142
SUGCT isoform 3 (UniProt Q9HAC7) | inactive: -0.338

compound: c1ccc([C@@H]2C[C@H]2NC2CCNCC2)cc1; test: as above
Procedure, shortened: as §1

Target | log2 fold change
STK35 (UniProt Q8TDR2) | inactive: -0.121
SUSD6 (UniProt Q92537) | inactive: 0.084
SUFU (UniProt Q9UMX1) | inactive: 0.047
SZT2 (UniProt Q5T011) | inactive: 0.105
TAF11 (UniProt Q15544) | inactive: -0.073
SYNM (UniProt O15061) | inactive: -0.084
SUPT4H1 (UniProt P63272) | inactive: 0.038
SULT1A3 isoform 3 (UniProt P0DMM9) | inactive: 0.05
STXBP6 (UniProt Q8NFX7) | inactive: 0.06
TAF13 (UniProt Q15543) | inactive: 0.122
SVBP (UniProt Q8N300) | inactive: -0.001
SUPT3H (UniProt O75486) | inactive: 0.054
STIM2 isoform 2 (UniProt Q9P246) | inactive: 0.014
STN1 (UniProt Q9H668) | inactive: -0.049
SYNGR1 isoform 2 (UniProt O43759) | inactive: -0.042
TAB3 (UniProt Q8N5C8) | inactive: 0.064
SYNCRIP isoform 3 (UniProt O60506) | inactive: -0.013
STS (UniProt P08842) | inactive: 0.016
TAF1 isoform 4 (UniProt P21675) | inactive: -0.011
STRN3 (UniProt H0YJT2) | inactive: -0.069
SUSD1 isoform 2 (UniProt Q6UWL2) | inactive: -0.002
SUSD3 (UniProt Q96L08) | inactive: -0.11
STYX (UniProt Q8WUJ0) | inactive: -0.01
STK17A (UniProt Q9UEE5) | inactive: 0.148
TAF3 (UniProt Q5VWG9) | inactive: 0.595
STRN3 isoform 2 (UniProt Q13033) | inactive: 0.112
